Experimental data published in paper PMC9042941.
Results are given in words; binding and its absence hold for the method and conditions named.

Target: MSMEG_3494_(33-153) (M. smegmatis) (UniProt A0QY10)
Assay: SEC; Superdex 75 gel filtration after Ni affinity purification and removal of the tag by enterokinase; single peak, estimated 15 kDa; both purified

B1: MSMEG_3494_(33-153) (domain or fragment, UniProt A0QY10 33-153)
chain: DATDDYPIPNRIMRTPCTAEQIMAAARDVEPVYYERYMTDYKNKPPHVQQAARDRIHWFFSMDYAGRRQYSENTATDAFFEQLAWMWPNWAKLFFNNKGVAANTTDVCEQYPPDDMSVWNW
binding: no binding
